Assay results taken from article PMC3808318, “A type III ACC synthase, ACS7, is involved in root gravitropism in Arabidopsis thaliana” (Journal of Experimental Botany, 2013).

Substrate: C[S+](CC[C@H](N)C(=O)O)C[C@H]1O[C@@H](n2cnc3c(N)ncnc32)[C@H](O)[C@@H]1O
Test: purified protein
Details: PLP cofactor, substrate not named beside the value, AdoMet by the enzyme's reaction, data not shown

B1: ACS7 (AtACS7, 6His-SUMO-ACS7), non-phosphorylated (Arabidopsis thaliana) (protein)
chain: MGLPLMMERSSNNNNVELSRVAVSDTHGEDSPYFAGWKAYDENPYDESHNPSGVIQMGLAENQVSFDLLETYLEKKNPEGSMWGSKGAPGFRENALFQDYHGLKTFRQAMASFMEQIRGGKARFDPDRIVLTAGATAANELLTFILADPNDALLVPTPYYPGFDRDLRWRTGVKIVPIHCDSSNHFQITPEALESAYQTARDANIRVRGVLITNPSNPLGATVQKKVLEDLLDFCVRKNIHLVSDEIYSGSVFHASEFTSVAEIVENIDDVSVKERVHIVYSLSKDLGLPGFRVGTIYSYNDNVVRTARRMSSFTLVSSQTQHMLASMLSDEEFTEKYIRINRERLRRRYDTIVEGLKKAGIECLKGNAGLFCWMNLGFLLEKKTKDGELQLWDVILKELNLNISPGSSCHCSEVGWFRVCFANMSENTLEIALKRIHEFMDRRRRF
- Km (non-phosphorylated enzyme): 27.43 µM

B2: phosphorylated ACS7 (AtACS7 phosphorylated by CDPK16) (Arabidopsis thaliana) (protein)
chain: MGLPLMMERSSNNNNVELSRVAVSDTHGEDSPYFAGWKAYDENPYDESHNPSGVIQMGLAENQVSFDLLETYLEKKNPEGSMWGSKGAPGFRENALFQDYHGLKTFRQAMASFMEQIRGGKARFDPDRIVLTAGATAANELLTFILADPNDALLVPTPYYPGFDRDLRWRTGVKIVPIHCDSSNHFQITPEALESAYQTARDANIRVRGVLITNPSNPLGATVQKKVLEDLLDFCVRKNIHLVSDEIYSGSVFHASEFTSVAEIVENIDDVSVKERVHIVYSLSKDLGLPGFRVGTIYSYNDNVVRTARRMSSFTLVSSQTQHMLASMLSDEEFTEKYIRINRERLRRRYDTIVEGLKKAGIECLKGNAGLFCWMNLGFLLEKKTKDGELQLWDVILKELNLNISPGSSCHCSEVGWFRVCFANMSENTLEIALKRIHEFMDRRRRF
- Km (enzyme phosphorylated by CDPK16): 13.65 µM
